The record followed here is doi:10.1101/2021.06.24.449774.

The chains behind the UniProt entries cited, without tags or fusion partners. Residues count along the entry.
UniProt P12314, residues 16-374: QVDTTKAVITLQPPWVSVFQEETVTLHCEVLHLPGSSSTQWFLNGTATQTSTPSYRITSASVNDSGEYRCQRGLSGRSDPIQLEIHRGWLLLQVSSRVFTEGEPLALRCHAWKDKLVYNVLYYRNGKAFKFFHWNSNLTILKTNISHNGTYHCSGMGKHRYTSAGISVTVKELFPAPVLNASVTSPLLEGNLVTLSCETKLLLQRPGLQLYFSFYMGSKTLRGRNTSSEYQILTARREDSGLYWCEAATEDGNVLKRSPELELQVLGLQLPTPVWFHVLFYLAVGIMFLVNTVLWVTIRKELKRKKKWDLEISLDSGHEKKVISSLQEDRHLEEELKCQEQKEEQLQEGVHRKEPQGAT

Results are given in words; binding and its absence hold for the method and conditions named. In cells and extracts the contact can be indirect. Some entries that bind do so weakly or less than the wild type.

This assay deals with FcγRI-GFP (human high affinity IgG receptor FcγRI fused to EGFP) (human) (UniProt P12314). Description: co-IP.

B1: Insulin Responsive AminoPeptidase (IRAP) (protein, UniProt Q8C129 1-1025)
chain: MESFTNDRLQLPRNMIENSMFEEEPDVVDLAKEPCLHPLEPDEVEYEPRGSRLLVRGLGEHEMDEDEEDYESSAKLLGMSFMNRSSGLRNSAAGYRQSPDGTCSLPSARTLVICVFVIVVAVSVIMVIYLLPRCTFTKEGCHKTNQSAELIQPVATNGKVFPWAQIRLPTAIIPLCYELSLHPNLTSMTFRGSVTISLQALQDTRDIILHSTGHNISRVTFMSAVSSQEKQVEILEYPYHEQIAVVAPEPLLTGHNYTLKIEYSANISNSYYGFYGITYTDKSNEKKYFAATQFEPLAARSAFPCFDEPAFKATFIIKITRNEHHTALSNMPKKSSVPAEEGLIQDEFSESVKMSTYLVAFIVGEMRNLSQDVNGTLVSVYAVPEKIGQVHHALDTTIKLLEFYQTYFEIQYPLKKLDLVAIPDFEAGAMENWGLLTFREETLLYDNATSSVADRKLVTKIIAHELAHQWFGNLVTMQWWNDLWLNEGFATFMEYFSVEKIFKELNSYEDFLDARFKTMRKDSLNSSHPISSSVQSSEQIEEMFDSLSYFKGASLLLMLKSYLSEDVFRHAVILYLHNHSYAAIQSDDLWDSFNEVTDKTLDVKKMMKTWTLQKGFPLVTVQRKGTELLLQQERFFLRMQPESQPSDTSHLWHIPISYVTDGRNYSEYRSVSLLDKKSDVINLTEQVQWVKVNSNMTGYYIVHYAHDDWTALINQLKRNPYVLSDKDRANLINNIFELAGLGKVPLRMAFDLIDYLKNETHTAPITEALFQTNLIYNLLEKLGHMDLSSRLVARVHKLLQNQIQQQTWTDEGTPSMRELRSALLEFACAHSLENCTTMATNLFDSWMASNGTQSLPTDVMVTVFKVGARTEKGWLFLFSMYSSMGSEAEKNKILEALASSEDVHKLYWLMKSSLDGDIIRTQKLSLIIRTVGRHFPGHLLAWDFVKENWNKLVHKFHLGSYTIQSIVAGSTHLFSTKTHLSEVQAFFENQSEATLKLRCVQEALEVIQLNIQWMVRNLKTLSQWL
Regarding B1, the binding entry is “binds”.
